Reference: the supplement of paper PMC3334620
The full ranking holds about 33,000 sequences; the median of “E-score (-0.5 to 0.5)” is about -0.0014, and the highest 2% start at about 0.25. The list shows a part of the results.

Biological target: T1, Cad1 (UniProt P24813)
T1 sequence: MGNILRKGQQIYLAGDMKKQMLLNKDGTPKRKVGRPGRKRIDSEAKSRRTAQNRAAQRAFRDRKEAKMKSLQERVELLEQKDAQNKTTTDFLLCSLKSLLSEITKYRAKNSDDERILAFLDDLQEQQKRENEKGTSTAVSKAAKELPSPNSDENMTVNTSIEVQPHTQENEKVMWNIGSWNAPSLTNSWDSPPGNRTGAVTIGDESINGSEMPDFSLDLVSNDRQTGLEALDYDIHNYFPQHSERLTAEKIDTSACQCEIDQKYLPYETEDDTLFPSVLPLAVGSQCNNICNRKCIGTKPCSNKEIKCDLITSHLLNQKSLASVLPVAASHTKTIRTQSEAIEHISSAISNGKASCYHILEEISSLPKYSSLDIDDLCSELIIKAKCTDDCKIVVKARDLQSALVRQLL
Experiment: PBM E-score (8-mer binding enrichment) (E-score (-0.5 to 0.5)); higher = stronger / more preferred TF binding
Conditions: protein concentration: 100 nM; construct: GST-full length
Summary of the method: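 Yeast transcription factors carrying a GST tag, as full-length proteins or DNA-binding domains, were produced by PURExpress in vitro transcription/translation. About 100-200 nM protein was applied to universal all-10-mer Agilent arrays, double-stranded by primer extension on fresh or once-stripped slides. Bound protein was detected with fluorescent anti-GST, and scans were normalised with masliner. The Universal PBM Analysis Suite gave each ungapped eight-base word, pooled with its reverse complement, an E-score, a modified Wilcoxon-Mann-Whitney statistic.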

Row | Sequence | PBM E-score
1 | CGTGGGTC | -0.0915
2 | AGAGGGAC | -0.293
3 | ACAGCAGT | 0.00346
4 | ACCAAAGG | -0.0188
5 | CGTTTTAA | 0.11
6 | GCGCGGAC | 0.224
7 | GTAATTTA | 0.267
8 | CCCTGGTC | -0.354
9 | CCCAATGC | -0.264
10 | ACCTGAAT | 0.163
11 | CGGATGGC | -0.0867
12 | ACATTTTA | 0.156
13 | GCGTTCGA | 0.113
14 | CTAGATTC | -0.174
15 | CTAACTCA | -0.0503
16 | ATCGAACA | 0.161
17 | AACGGTTG | 0.0328
18 | ATTCGGGC | 0.0103
19 | CTACTCAC | 0.0498
20 | ACTCCACA | -0.186
21 | AAAGTGAA | 0.0425
22 | AGACGGAA | 0.0522
23 | ACGAATTA | 0.0763
24 | TCCCTAAA | 0.0334
25 | GAGTATAA | 0.139

Row | Sequence | PBM E-score
26 | CCATCGGG | -0.0691
27 | AGGTGCAG | -0.141
28 | AGTTGTGC | -0.0792
29 | CCGATTCC | 0.00025
30 | GGCTGGTA | -0.18
31 | AGAGCCCA | -0.0735
32 | GAATTCTC | 0.14
33 | GATCCACC | -0.206
34 | AACGTGGT | -0.0017
35 | ATACTGGC | -0.16
36 | GAAAGCCC | -0.0386
37 | GCTCATAC | 0.0201
38 | ATGAAGAA | -0.0437
39 | CCAGTATA | -0.0609
40 | CCTTAAAA | -0.0741
41 | ATCCATAG | 0.0116
42 | AGTCTATG | -0.134
43 | ATCAAGCA | 0.0448
44 | TATGACGA | 0.0525
45 | CTGCGGTC | -0.0674
46 | AGGACGCG | -0.00704
47 | CACGACCG | -0.207
48 | AGCTCGCG | 0.262
49 | ACGCCGAG | -0.173
50 | GAGTCGGA | -0.15

Row | Sequence | PBM E-score
51 | GGTGCAAC | -0.0495
52 | ACAAGTTA | 0.0637
53 | ACGTCTGC | 0.031
54 | AAAAGACG | -0.00093
55 | ATTATCTC | 0.153
56 | CAGTAGAG | -0.159
57 | CTGGCAAG | -0.138
58 | AGCTTATG | 0.0534
59 | ATTGTTAC | 0.247
60 | CGGTTCGA | 0.146
61 | AGAGCCGG | -0.167
62 | TAAGGAAA | 0.0987
63 | GCAGGAAA | -0.0367
64 | TGATGAAA | -0.043
65 | GTGCGAGA | -0.0227
66 | CGGTCGAG | -0.215
67 | CTCTCTCC | -0.276
68 | CCGGTAGC | -0.164
69 | CTCAGTTA | 0.0821
70 | CGAAGAAC | 0.072
71 | AATTAGTA | 0.316
72 | AGTCTCTA | -0.174
73 | ATTGCACG | 0.148
74 | CTCCCTGC | -0.163
75 | ACACCTCG | -0.136

Row | Sequence | PBM E-score
76 | GAGGACGA | 0.0928
77 | ATGCGGTG | -0.0963
78 | CCTTGAAA | 0.00948
79 | GAACCATA | 0.0124
80 | AAGGCACT | -0.14
81 | TGAGACAA | 0.0356
82 | TGAGTACA | 0.0882
83 | ATAAGCAA | 0.296
84 | CCATTGCG | -0.0669
85 | CCCTATGA | -0.102
86 | CTCATTAA | 0.115
87 | TCATTGGA | 0.12
88 | ATGAAACA | -0.0141
89 | AGCAGCAC | -0.0396
90 | TACAACTA | 0.0174
91 | GACCAGCC | -0.093
92 | AGGGGTCG | -0.116
93 | CTGCTGAA | 0.0549
94 | CTGTCGTC | 0.0985
95 | AGTGTCAC | 0.0965
96 | AACACTAT | 0.174
97 | GGATGACC | -0.194
98 | AGAGTAAG | -0.0328
99 | CCGTGCAA | -0.0239
100 | ACTCAATA | 0.116

Row | Sequence | PBM E-score
101 | GAATCGAA | 0.106
102 | CATGTACG | 0.0283
103 | CAGTCAGC | -0.0508
104 | CTTCAAAA | -0.0254
105 | AAAATGGA | 0.267
106 | ATAGTATA | 0.00052
107 | AATAGGAC | 0.0966
108 | AATCGTAC | -0.0133
109 | GCTTTATA | -0.0237
110 | GCAATAAC | 0.124
111 | GACCGACA | -0.11
112 | AATGTATA | 0.111
113 | GCATGGAA | -0.0952
114 | CAGCGTTC | 0.0544
115 | ACACCGAA | -0.0255
116 | AGCGTCTA | -0.179
117 | GTCCGTCA | 0.0105
118 | AGAAACCT | -0.00087
119 | ACGTGACA | 0.154
120 | ACTGGACA | -0.00506
121 | ACTACTCT | 0.096
122 | GACCGAGC | -0.13
123 | ATGATCCG | 0.0247
124 | AGTGGTAC | -0.103
125 | ACGTTCCG | -0.0396

Row | Sequence | PBM E-score
126 | CCTGCCAG | -0.147
127 | GTTCCGGA | 0.143
128 | AGAGGATA | -0.092
129 | AGAATAGG | 0.0961
130 | ATGCAGCG | -0.0533
131 | AAAACGAC | 0.0698
132 | CAAAGGTG | -0.107
133 | GGCCAGCA | -0.00264
134 | CCCCCCGC | -0.418
135 | GGCAGGCC | -0.0559
136 | GCTGTGCA | -0.0876
137 | CTTTCCTC | -0.174
138 | GCGACCCA | -0.136
139 | AATCCTAT | 0.193
140 | CCAGGTTC | -0.144
141 | GGAGACAA | 0.0925
142 | CCCAATCC | -0.113
143 | CCATCAGC | -0.0845
144 | ATGTATGC | 0.138
145 | CCGTACGC | -0.0844
146 | ATCCCCAT | -0.102
147 | CAAGGGAG | -0.152
148 | AAGCCGGT | -0.024
149 | GCGGGAGC | -0.146
150 | CGTCCTAG | -0.0805

An excerpt of these results, tab-delimited.
Row	Sequence	PBM E-score
4	ACCAAAGG	-0.0188
6	GCGCGGAC	0.224
8	CCCTGGTC	-0.354
10	ACCTGAAT	0.163
13	GCGTTCGA	0.113
14	CTAGATTC	-0.174
17	AACGGTTG	0.0328
23	ACGAATTA	0.0763
25	GAGTATAA	0.139
26	CCATCGGG	-0.0691
42	AGTCTATG	-0.134
43	ATCAAGCA	0.0448
46	AGGACGCG	-0.00704
47	CACGACCG	-0.207
50	GAGTCGGA	-0.15
56	CAGTAGAG	-0.159
57	CTGGCAAG	-0.138
58	AGCTTATG	0.0534
61	AGAGCCGG	-0.167
66	CGGTCGAG	-0.215
71	AATTAGTA	0.316
72	AGTCTCTA	-0.174
73	ATTGCACG	0.148
79	GAACCATA	0.0124
81	TGAGACAA	0.0356
83	ATAAGCAA	0.296
85	CCCTATGA	-0.102
89	AGCAGCAC	-0.0396
91	GACCAGCC	-0.093
92	AGGGGTCG	-0.116
96	AACACTAT	0.174
100	ACTCAATA	0.116
104	CTTCAAAA	-0.0254
115	ACACCGAA	-0.0255
120	ACTGGACA	-0.00506
124	AGTGGTAC	-0.103
125	ACGTTCCG	-0.0396
129	AGAATAGG	0.0961
136	GCTGTGCA	-0.0876
137	CTTTCCTC	-0.174
141	GGAGACAA	0.0925
142	CCCAATCC	-0.113
145	CCGTACGC	-0.0844

Fetched one by one from the entries so far, 5 records:
Row | Sequence | PBM E-score
115 | ACACCGAA | -0.0255
38 | ATGAAGAA | -0.0437
66 | CGGTCGAG | -0.215
27 | AGGTGCAG | -0.141
109 | GCTTTATA | -0.0237

Continued:

Row | Sequence | PBM E-score
151 | AAAGACTA | -0.15
152 | TATTGTGA | 0.0688
153 | AGCTTCGC | -0.107
154 | ACTAGACA | 0.112
155 | CGTAGATC | 0.0236
156 | ATCTAATA | 0.147
157 | CAGCTATC | -0.0176
158 | CCCCATCA | -0.00342
159 | AAGTCTGA | -0.14
160 | CGAGGCCG | -0.0246
161 | CAGCCATA | -0.0726
162 | CACAGAAC | -0.134
163 | GTGTCTCA | 0.0466
164 | CTAGGGAC | -0.06
165 | AGGAGAAG | -0.167
166 | AATAATAT | 0.208
167 | CTTGTCAA | -0.0346
168 | AGCCATTC | -0.0993
169 | AGTACGAC | 0.0664
170 | CCACATGG | -0.0422
171 | CACGTGTA | -0.129
172 | GACATCTA | 0.097
